Assay results from patent US20230280275A1, “PHOTOACTIVATABLE VIBRATIONAL PROBES AND USES THEREOF” (California Institute of Technology, priority 2021, published 2023).
Some entries share one result that the patent states for a list of compounds. At least one compound was matched to its structure with a doubt left.

Test: (HP)LC-MS for assessing the stability of cyclopropenone probes in physiological condition
Format: physicochemical
Settings: 10 mM cysteine PBS, 37° C., HPLC
Description: The assessed probe was first dissolved in DMSO and later diluted in 10 mM cysteine (Sigma, 168149, dissolved in PBS) solution or DMEM (Corning, 35-015-CV) medium. Analytical HPLC coupled with mass spectrometry (LC-MS) was performed on Agilent 1290 infinity LC system using ZORBAX RRHD Eclipse Plus C18, 95 Å, 2.1 x 50 mm, 1.8 µm column with Agilent 6140 Series Quadrupole LCMS / LC-MS / MSD / Mass Spectrometer System. The mobile phase is water (0.1% AcOH) and acetonitrile with running method of gradient 5%-95% acetonitrile (1 ml/min, 4 min for total running time). The mass spectrometry detection region ranges from 100 to 800 AMU. The data shown in the main figures and supplementary figures are the absorption (280.8 nm) intensity traces.
It was hypothesized that this was likely because the cyclopropenone structures are susceptible to nucleophilic attack, leading to ring-opened α,β-unsaturated acids derivatives. Cysteines, glutathione, and other biological thiols are strong nucleophiles and could easily deactivate cyclopropenones. The stability of 1-cyclo (1) in 10 mM cysteine phosphate-buffered saline (PBS) at 37° C. was therefore tested, mimicking physiological conditions.

Structure (SMILES)	time to complete decomposition
O=c1c(-c2ccccc2)c1-c1ccccc1 [1-cyclo (1), diphenylcyclopropenone]	≤ 30 min
O=c1c(-c2ccccc2)c1-c1ccc(OCCC[P+](c2ccccc2)(c2ccccc2)c2ccccc2)cc1.[Br-] [Cyclo-Mito (7)]	≤ 30 min
